Experiment [1] deals with mitogen-activated protein kinase 4 (MAP4K4), endogenous (human (endogenous in Huh7 and PLC/PRF/5)) (UniProt O95819). Kind of experiment: co-IP; endogenous proteins in Huh7 and PLC/PRF/5 lysates; anti-MAP4K4 or anti-G3BP2 antibody or control IgG overnight, then protein A/G magnetic beads 4 h; washed five times with TBS (50 mM Tris-HCl, 150 mM NaCl, pH 7.4); Western blot.
A further experiment has as its target HA-MAP4K4 (UniProt O95819). Kind of experiment: co-IP; HEK293T cells co-transfected with Flag-G3BP2 and HA-MAP4K4; lysates with anti-HA antibody and protein A/G magnetic beads or anti-FLAG magnetic beads, 4 °C overnight; washed five times with TBS (50 mM Tris-HCl, 150 mM NaCl, pH 7.4); Western blot. For orientation: Immunoblotting shows a protein as a band on a membrane.

Sequences of proteins named here, by UniProt entry; tags and fusion partners are left off.
UniProt O95819: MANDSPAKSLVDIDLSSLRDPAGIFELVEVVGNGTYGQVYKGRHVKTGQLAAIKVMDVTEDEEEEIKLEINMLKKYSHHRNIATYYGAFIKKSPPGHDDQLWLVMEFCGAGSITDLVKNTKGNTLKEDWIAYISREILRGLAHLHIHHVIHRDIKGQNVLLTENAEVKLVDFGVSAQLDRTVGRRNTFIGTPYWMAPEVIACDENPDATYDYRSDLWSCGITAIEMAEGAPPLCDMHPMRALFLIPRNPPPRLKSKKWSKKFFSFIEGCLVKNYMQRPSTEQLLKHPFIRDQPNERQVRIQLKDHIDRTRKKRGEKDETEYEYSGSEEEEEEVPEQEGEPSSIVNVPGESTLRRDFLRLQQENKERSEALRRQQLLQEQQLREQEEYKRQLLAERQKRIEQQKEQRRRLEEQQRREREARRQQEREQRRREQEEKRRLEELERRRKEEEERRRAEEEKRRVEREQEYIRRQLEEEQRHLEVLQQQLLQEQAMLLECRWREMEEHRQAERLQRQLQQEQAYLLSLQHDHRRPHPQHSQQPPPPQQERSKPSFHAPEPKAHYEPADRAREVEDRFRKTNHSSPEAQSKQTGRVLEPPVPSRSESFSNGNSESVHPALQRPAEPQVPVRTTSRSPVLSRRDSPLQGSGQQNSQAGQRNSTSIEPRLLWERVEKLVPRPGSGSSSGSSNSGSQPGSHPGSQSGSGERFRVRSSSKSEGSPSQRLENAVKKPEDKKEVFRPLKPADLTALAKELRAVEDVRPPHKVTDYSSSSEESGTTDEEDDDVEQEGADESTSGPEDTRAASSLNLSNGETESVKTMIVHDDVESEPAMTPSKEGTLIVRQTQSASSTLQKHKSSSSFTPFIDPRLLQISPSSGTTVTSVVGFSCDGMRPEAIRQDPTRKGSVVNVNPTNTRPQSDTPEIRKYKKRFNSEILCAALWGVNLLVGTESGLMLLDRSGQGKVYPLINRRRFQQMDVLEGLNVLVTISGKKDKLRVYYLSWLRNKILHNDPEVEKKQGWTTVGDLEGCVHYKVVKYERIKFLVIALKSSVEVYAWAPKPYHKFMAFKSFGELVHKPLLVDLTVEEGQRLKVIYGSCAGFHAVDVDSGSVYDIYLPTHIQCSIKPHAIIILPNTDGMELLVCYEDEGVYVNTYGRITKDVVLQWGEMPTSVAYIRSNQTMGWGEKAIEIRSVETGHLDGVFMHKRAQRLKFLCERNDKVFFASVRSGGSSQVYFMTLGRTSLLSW

Results are given in words; binding and its absence hold for the method and conditions named. Binding seen in cells or lysates may run through a third protein. Some entries that bind do so weakly or less than the wild type. For part of these data: Sequences can lack the tags named with a protein.

B1: Peptide transporter 1 (PEPT1), endogenous (protein, UniProt P46059 1-708)
chain: MGMSKSHSFFGYPLSIFFIVVNEFCERFSYYGMRAILILYFTNFISWDDNLSTAIYHTFVALCYLTPILGALIADSWLGKFKTIVSLSIVYTIGQAVTSVSSINDLTDHNHDGTPDSLPVHVVLSLIGLALIALGTGGIKPCVSAFGGDQFEEGQEKQRNRFFSIFYLAINAGSLLSTIITPMLRVQQCGIHSKQACYPLAFGVPAALMAVALIVFVLGSGMYKKFKPQGNIMGKVAKCIGFAIKNRFRHRSKAFPKREHWLDWAKEKYDERLISQIKMVTRVMFLYIPLPMFWALFDQQGSRWTLQATTMSGKIGALEIQPDQMQTVNAILIVIMVPIFDAVLYPLIAKCGFNFTSLKKMAVGMVLASMAFVVAAIVQVEIDKTLPVFPKGNEVQIKVLNIGNNTMNISLPGEMVTLGPMSQTNAFMTFDVNKLTRINISSPGSPVTAVTDDFKQGQRHTLLVWAPNHYQVVKDGLNQKPEKGENGIRFVNTFNELITITMSGKVYANISSYNASTYQFFPSGIKGFTISSTEIPPQCQPNFNTFYLEFGSAYTYIVQRKNDSCPEVKVFEDISANTVNMALQIPQYFLLTCGEVVFSVTGLEFSYSQAPSNMKSVLQAGWLLTVAVGNIIVLIVAGAGQFSKQWAEYILFAALLLVVCVIFAIMARFYTYINPAEIEAQFDEDEKKNRLEKSNPYFMSGANSQKQM
B1: the binding entry in experiment [1] was “no binding”.

B2: Ras-GTPase-activating protein (SH3 domain)-binding protein 2 (G3BP2), endogenous (protein, UniProt Q9UN86 1-482)
chain: MVMEKPSPLLVGREFVRQYYTLLNKAPEYLHRFYGRNSSYVHGGVDASGKPQEAVYGQNDIHHKVLSLNFSECHTKIRHVDAHATLSDGVVVQVMGLLSNSGQPERKFMQTFVLAPEGSVPNKFYVHNDMFRYEDEVFGDSEPELDEESEDEVEEEQEERQPSPEPVQENANSGYYEAHPVTNGIEEPLEESSHEPEPEPESETKTEELKPQVEEKNLEELEEKSTTPPPAEPVSLPQEPPKAFSWASVTSKNLPPSGTVSSSGIPPHVKAPVSQPRVEAKPEVQSQPPRVREQRPRERPGFPPRGPRPGRGDMEQNDSDNRRIIRYPDSHQLFVGNLPHDIDENELKEFFMSFGNVVELRINTKGVGGKLPNFGFVVFDDSEPVQRILIAKPIMFRGEVRLNVEEKKTRAARERETRGGGDDRRDIRRNDRGPGGPRGIVGGGMMRDRDGRGPPPRGGMAQKLGSGRGTGQMEGRFTGQRR
Regarding B2, the binding result in experiment [1] was “binds”.

B3: Flag-G3BP2 (protein, UniProt Q9UN86 1-482)
chain: B2 chain
On to B3, for which the binding entry with HA-MAP4K4 is “binds”.

(Values after article PMC11200092.)
